From patent US20140370023A1 (HENRY M JACKSON FOUNDATION FOR THE ADVANCEMENT OF MILITARY …, published 2014)
These are yes or no findings as the source states them, for the method shown. Some binding calls cover weakened binding; strength is not graded here. For some assays here: Where a sequence is shown, tags or fusion partners need not be part of it.

What was measured:
[1] = molecular target: T1, ERG protein encoded by the TMPRSS2/ERG3 fusion transcript (50-52 kDa) (human) (UniProt P11308); assay: Western blot of TMPRSS2/ERG3 transfected HEK293 cells, 9FY at 1:5000
T1 sequence: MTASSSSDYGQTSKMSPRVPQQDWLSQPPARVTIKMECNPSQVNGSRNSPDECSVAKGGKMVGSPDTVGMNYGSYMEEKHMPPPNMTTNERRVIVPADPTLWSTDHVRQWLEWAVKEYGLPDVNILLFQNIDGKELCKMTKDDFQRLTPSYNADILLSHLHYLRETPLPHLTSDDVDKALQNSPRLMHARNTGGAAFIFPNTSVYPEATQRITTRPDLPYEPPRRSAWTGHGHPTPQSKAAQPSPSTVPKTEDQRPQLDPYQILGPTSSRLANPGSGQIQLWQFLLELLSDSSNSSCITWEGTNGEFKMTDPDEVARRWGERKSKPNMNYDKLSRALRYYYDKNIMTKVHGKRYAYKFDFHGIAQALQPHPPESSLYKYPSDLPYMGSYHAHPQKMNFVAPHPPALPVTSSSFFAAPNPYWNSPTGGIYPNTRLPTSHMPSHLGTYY

[2] = molecular target: T1, ERG protein encoded by the TMPRSS2/ERG3 fusion transcript (50-52 kDa) (human); assay: Western blot of transfected HEK-293 lysates, 9FY at 1:5000
[3] = molecular target: T1, ERG protein encoded by the TMPRSS2/ERG3 fusion transcript (50-52 kDa) (human); assay: immunoblot of R1881-treated VCaP cell lysates
[4] = molecular target: T1, ERG protein encoded by the TMPRSS2/ERG3 fusion transcript (50-52 kDa) (human); assay: chromatin immunoprecipitation, VCaP cells
[5] = molecular target: T1, ERG protein encoded by the TMPRSS2/ERG3 fusion transcript (50-52 kDa) (human); assay: IF on VCaP cells
[6] = molecular target: T1, ERG protein encoded by the TMPRSS2/ERG3 fusion transcript (50-52 kDa) (human); assay: Western blot of transfected HEK-293 lysates
[7] = molecular target: T2, human ERG3 (encoded by TMPRSS2/ERG3 construct) with C-terminal FLAG tag (human) (UniProt P11308); assay: Western blot of transiently expressed FLAG-tagged proteins
T2 sequence: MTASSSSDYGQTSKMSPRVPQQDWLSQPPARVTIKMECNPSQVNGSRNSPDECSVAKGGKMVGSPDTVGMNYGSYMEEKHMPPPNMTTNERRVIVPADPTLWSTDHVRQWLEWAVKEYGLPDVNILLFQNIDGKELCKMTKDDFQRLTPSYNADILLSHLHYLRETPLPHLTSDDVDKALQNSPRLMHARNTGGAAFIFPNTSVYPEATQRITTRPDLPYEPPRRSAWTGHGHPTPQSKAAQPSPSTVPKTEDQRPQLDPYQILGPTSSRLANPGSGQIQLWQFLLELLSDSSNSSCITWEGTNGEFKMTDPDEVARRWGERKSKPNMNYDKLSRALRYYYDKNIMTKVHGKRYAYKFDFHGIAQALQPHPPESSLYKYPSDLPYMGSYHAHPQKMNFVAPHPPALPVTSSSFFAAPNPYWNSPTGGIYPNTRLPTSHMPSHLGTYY

[8] = molecular target: T1, ERG protein encoded by the TMPRSS2/ERG3 fusion transcript (50-52 kDa) (human); assay: competitive IF on VCaP cells
[9] = molecular target: T3, mouse ERG protein (mouse) (UniProt P81270); assay: IHC on FFPE mouse prostate tissue, 1:1000
T3 sequence (looked up): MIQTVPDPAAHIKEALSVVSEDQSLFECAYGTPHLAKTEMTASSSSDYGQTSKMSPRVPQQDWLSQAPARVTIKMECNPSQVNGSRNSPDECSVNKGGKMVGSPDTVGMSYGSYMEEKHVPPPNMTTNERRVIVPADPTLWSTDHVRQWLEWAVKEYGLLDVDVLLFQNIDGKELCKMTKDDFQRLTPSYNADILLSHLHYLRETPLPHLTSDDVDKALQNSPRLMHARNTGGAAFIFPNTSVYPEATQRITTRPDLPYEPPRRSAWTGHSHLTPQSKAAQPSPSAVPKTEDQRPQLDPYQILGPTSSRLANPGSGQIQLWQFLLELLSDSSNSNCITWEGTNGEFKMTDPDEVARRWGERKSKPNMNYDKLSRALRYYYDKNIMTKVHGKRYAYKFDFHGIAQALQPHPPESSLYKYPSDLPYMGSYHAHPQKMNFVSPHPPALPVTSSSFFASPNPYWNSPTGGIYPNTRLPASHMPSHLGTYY

[10] = molecular target: T1, ERG protein encoded by the TMPRSS2/ERG3 fusion transcript (50-52 kDa) (human); assay: immunoblot of pIRES-TMPRSS2-ERG3 transfected HEK293 lysates
[11] = molecular target: T4, protein product encoded by TMPRSS2/ERG2 (approximately 50-52 kDa) (human) (UniProt P11308); assay: Western blot of R1881-induced VCaP lysates
T4 sequence (looked up): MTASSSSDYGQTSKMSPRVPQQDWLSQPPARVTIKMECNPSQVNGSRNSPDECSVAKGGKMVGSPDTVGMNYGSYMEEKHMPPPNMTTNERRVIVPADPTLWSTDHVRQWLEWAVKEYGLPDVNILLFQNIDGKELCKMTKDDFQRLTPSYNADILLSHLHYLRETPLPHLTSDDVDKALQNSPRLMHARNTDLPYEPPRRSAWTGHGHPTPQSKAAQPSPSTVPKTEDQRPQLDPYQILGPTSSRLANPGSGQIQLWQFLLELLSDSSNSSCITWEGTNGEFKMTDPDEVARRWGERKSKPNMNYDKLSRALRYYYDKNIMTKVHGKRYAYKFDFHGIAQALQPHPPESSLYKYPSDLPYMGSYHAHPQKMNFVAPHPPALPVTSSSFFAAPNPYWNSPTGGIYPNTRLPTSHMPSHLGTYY

[12] = molecular target: T1, ERG protein encoded by the TMPRSS2/ERG3 fusion transcript (50-52 kDa) (human); assay: Western blot of R1881-induced VCaP lysates
[13] = molecular target: T1, ERG protein encoded by the TMPRSS2/ERG3 fusion transcript (50-52 kDa) (human); assay: IF on VCaP cells; also at 1:5,000 to 1:20,000 dilution of 3.7 mg/ml stock
[14] = molecular target: T1, ERG protein encoded by the TMPRSS2/ERG3 fusion transcript (50-52 kDa) (human); assay: chromatin immunoprecipitation, R1881-treated VCaP cells

Measured: binding

B1: 9FY antibody (monoclonal antibody produced by the hybridoma clone 9FY) (antibody, V domains shown)
VH: QIQLVQSGPDLKKPGETVKISCKASGYTFTNYGINWVKQAPGKGFKWMGWIDTYTGEPTYVDDFKGRFVFSLETSASTAYLQINNLKNEDTATYFCVRKRAYDYEIYWGQGTPLTVSS
VL: ENVLTQSPAIMSASLGEKVTLSCRASSSVYYMFWYQQKSDASPKLWIYYTSNLAPGVPARFSGSGSGNSYSLTISSVEGEDAATYYCLQFSTSPWTFGGGTKLEIKR
notes: Mouse (Balb/C) hybridoma antibody purified from ascites over Protein G; sub-type determined to be IgG; also called ERG-MAb; 9FY monoclonal antibody
binds: all assays above
